Results taken from paper PMC2765987 (2009).
Results are given in words; binding and its absence hold for the method and conditions named. In cells and extracts the contact can be indirect.

Sequences of proteins named here, by UniProt entry; tags and fusion partners are left off. A change or cut given only in a name is not applied to a line headed by its entry.
UniProt Q5H9R7: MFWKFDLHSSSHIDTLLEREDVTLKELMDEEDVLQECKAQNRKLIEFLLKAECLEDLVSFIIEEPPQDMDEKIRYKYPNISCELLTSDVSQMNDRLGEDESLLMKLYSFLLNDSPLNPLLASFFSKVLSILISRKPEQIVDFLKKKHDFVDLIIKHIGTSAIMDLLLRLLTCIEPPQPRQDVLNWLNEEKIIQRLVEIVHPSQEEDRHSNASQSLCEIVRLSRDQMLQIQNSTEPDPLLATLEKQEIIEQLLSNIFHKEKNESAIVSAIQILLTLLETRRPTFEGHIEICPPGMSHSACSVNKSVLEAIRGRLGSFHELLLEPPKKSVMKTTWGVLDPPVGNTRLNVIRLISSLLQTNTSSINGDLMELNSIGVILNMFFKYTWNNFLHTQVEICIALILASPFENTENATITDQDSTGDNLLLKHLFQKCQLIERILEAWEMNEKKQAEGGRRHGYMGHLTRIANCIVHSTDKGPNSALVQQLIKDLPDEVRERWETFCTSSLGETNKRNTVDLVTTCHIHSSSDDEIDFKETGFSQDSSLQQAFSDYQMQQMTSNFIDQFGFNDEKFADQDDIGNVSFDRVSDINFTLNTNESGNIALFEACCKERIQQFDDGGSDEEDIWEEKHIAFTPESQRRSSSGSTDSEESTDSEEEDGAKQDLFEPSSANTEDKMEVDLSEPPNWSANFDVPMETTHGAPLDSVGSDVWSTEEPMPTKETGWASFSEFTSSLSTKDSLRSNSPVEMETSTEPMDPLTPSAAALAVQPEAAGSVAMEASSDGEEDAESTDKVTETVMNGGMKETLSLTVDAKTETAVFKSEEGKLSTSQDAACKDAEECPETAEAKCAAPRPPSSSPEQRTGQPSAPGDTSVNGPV

Target: FLAG-tagged PP6R3 C-terminal region (512-873) (human) (UniProt Q5H9R7)
Assay: co-IP; FLAG-tagged PP6R3 and fragments expressed in HEK293 cells, precipitated with anti-FLAG (M2) beads; endogenous PP6c detected by immunoblotting

B1: PP6 catalytic subunit, endogenous (enzyme, UniProt O00743 1-305)
chain: MAPLDLDKYVEIARLCKYLPENDLKRLCDYVCDLLLEESNVQPVSTPVTVCGDIHGQFYDLCELFRTGGQVPDTNYIFMGDFVDRGYYSLETFTYLLALKAKWPDRITLLRGNHESRQITQVYGFYDECQTKYGNANAWRYCTKVFDMLTVAALIDEQILCVHGGLSPDIKTLDQIRTIERNQEIPHKGAFCDLVWSDPEDVDTWAISPRGAGWLFGAKVTNEFVHINNLKLICRAHQLVHEGYKFMFDEKLVTVWSAPNYCYRCGNIASIMVFKDVNTREPKLFRAVPDSERVIPPRTTTPYFL
binding: no binding
